The assay deals with T1, OTUD6B (human (endogenous in LUAD cell lines)) (UniProt Q8N6M0).
T1 sequence: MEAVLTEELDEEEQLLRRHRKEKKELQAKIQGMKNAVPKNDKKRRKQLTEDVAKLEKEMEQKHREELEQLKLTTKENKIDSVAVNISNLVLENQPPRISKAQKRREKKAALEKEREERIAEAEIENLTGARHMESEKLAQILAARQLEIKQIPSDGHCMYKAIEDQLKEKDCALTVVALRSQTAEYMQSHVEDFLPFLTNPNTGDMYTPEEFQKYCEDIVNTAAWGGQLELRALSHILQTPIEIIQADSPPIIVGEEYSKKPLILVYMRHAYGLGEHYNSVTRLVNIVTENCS
Put plainly: affinity purification with mass spectrometry; LUAD cell lysates in NP-40 lysis buffer (150 mM NaCl, 10 mM HEPES pH 7.4), IP with anti-OTUD6B antibody and protein G agarose at 4 °C overnight; SDS-PAGE, Coomassie staining, specific bands analysed by mass spectrometry.

Chains of the proteins cited; added tags and fusions are not shown.
UniProt Q13546: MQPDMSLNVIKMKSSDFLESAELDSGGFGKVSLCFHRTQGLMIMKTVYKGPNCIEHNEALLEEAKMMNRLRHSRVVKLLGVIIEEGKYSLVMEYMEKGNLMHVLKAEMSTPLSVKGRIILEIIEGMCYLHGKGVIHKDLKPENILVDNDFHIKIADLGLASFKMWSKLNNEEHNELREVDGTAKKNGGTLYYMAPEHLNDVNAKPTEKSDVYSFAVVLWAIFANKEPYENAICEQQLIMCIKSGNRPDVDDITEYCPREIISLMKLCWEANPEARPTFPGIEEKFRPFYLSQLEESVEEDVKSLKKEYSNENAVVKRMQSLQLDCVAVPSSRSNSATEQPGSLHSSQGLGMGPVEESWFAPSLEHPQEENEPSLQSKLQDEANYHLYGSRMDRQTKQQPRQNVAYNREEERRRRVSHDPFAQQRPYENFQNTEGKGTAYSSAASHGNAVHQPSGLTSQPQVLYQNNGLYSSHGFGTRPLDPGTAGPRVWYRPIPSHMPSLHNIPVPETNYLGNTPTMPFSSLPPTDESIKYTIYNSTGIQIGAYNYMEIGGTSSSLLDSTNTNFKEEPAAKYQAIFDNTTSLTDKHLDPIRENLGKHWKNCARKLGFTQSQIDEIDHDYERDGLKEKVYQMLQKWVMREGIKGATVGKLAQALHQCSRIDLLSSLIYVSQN

The text below walks through data of article PMC11181667.

No constants are given. Whether binding was seen depends on the method and setting. Binding seen in cells or lysates may run through a third protein. A yes stands for co-enrichment or nearness to the bait. Other partners may have been found.

As to “Receptor interacting serine/threonine kinase 1 (RIPK1) (from UniProt Q13546 1-671) (enzyme)”, the binding result is listed as “binds”.
